## Results of single-concentration screens

Mtb glucose medium: 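Whole-cell growth test on Mycobacterium tuberculosis, read after 3 days in glucose-containing 7H9 medium; the read-out is not stated. Concentration: 50 µM. Direction is inferred from retests: higher values go with more growth inhibition. About 69,000 compounds were tested under these conditions; 1.1% (about 760) showed 50% or more at least once.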
Mtb cholesterol medium: 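Whole-cell growth test on Mycobacterium tuberculosis, read after 4 days in a medium based on cholesterol and the lipid DPPC; the read-out is not stated. Concentration: 50 µM. Higher reads as more growth inhibition (inferred: compounds with an IC50 in retests scored well above the rest). Size under these conditions: about 69,000 compounds, about 370 of them at 50% or above in at least one test.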

Values are the deposited “Percent Effect”, in %. The record does not define 0% and 100%; most values in the screen are far below 50% and negative numbers occur (in some assays of this library far below -100). The compounds are a random part of those screened. Two or more numbers in one place are separate tests of the same structure; such repeats can differ widely.

Compound,Mtb glucose medium,Mtb cholesterol medium
COc1cccc(SCC(=O)N2CCCC(N3CCCC3=O)C2)c1 (stereo not given),27.71%,15.63%
CCN1CCN(c2ccc(F)cc2C(C)NCc2noc(C)n2)CC1 (stereo not given),39.6%,9.411%
CCN(Cc1nc(COC)no1)Cc1cccnc1NC(=O)C(C)(C)C,0.2327%,-1.466%
CC1=Nc2c(c(O)nn2C2CCOCC2)C(c2cccnc2)S1 (stereo not given),-13.5%,-4.787%
O=C(Nc1ccc2c(c1)C(=O)NC2)c1ccc(S(=O)(=O)C(F)(F)F)cc1,-3.143%,-18.34%
O=C(O)C(F)(F)F.[H][C@@]12CN(Cc3cccs3)C[C@]1([H])C(=O)N(CC)C2,-8.659%,-22.4%
CCN(CC)S(=O)(=O)N1CCC(c2c(C(N)=O)sc3ccccc23)C1 (stereo not given),33.72%,7.498%
CCC(C(=O)NC1CCN(S(C)(=O)=O)CC1)n1cccn1 (stereo not given),-21.96%,-12.6%
COCCN(C)CCN1CC2(CCN(C3CCNCC3)CC2)OC1=O,11.54%,9.689% & -8.452%
Cn1c(=O)ccn(CC(=O)NCC2Cc3ccccc3O2)c1=O (stereo not given),-9.586%,-17.9%
Cc1cccn2cc(CN3CCC(N4CCN(C)C4=O)CC3)nc12,-6.768%,3.785%
CC(C)CNC(=O)c1cc(C2CC2)nc2c1c(C1CCCN1)nn2C (stereo not given),9.976%,3.363%
[H][C@@]12CN(c3cc(OC)ncn3)C[C@@H](C(=O)NC3CC3)[C@]1([H])CCO2,-11.43%,-8.389%
N#Cc1ccc(F)c(CNC(=O)NC(CO)Cc2ccccc2)c1 (stereo not given),19.84%,6.194%
CC(=O)N1CCC(Cc2cnc(C(=O)N3CCCC3)cn2)C1 (stereo not given),-14.08%,-10.1%
O=C(O)C(F)(F)F.[H][C@@]12COC[C@@H](C(=O)N3CCCCO3)[C@]1([H])CN(Cc1cc(C)on1)C2,-27.13%,-7.826% & -2.239%
Cc1cccc(CN2CCc3onc(CO)c3C2)n1.O=C(O)C(F)(F)F,-11.74%,-6.521%
O=C(OCc1cc(=O)n2cc(Br)ccc2n1)c1ccc2c(c1)OCO2,-26.36%,-11.65%
CC(C)(NC(=O)C1CCN(C2CCCCC2)CC1)c1nnc(N)s1,4.664%,-14.11% & 2.5%
O=C(O)C(F)(F)F.O=C(O)C(F)(F)F.c1cncc(OCc2noc3c2CN(Cc2cccs2)CC3)c1,3.485%,-12.43%
CC(C)c1ccc(NC(=O)Cn2cc(I)cn2)cc1,24.73%,7.023%
CC(C)c1nn(C)c(N(C)C)c1CNCC(O)c1ccccc1 (stereo not given),24.76%,2.182%
Cn1ccc(C(=O)NCCOc2ccc(C(C)(C)C)cc2)cc1=O,24.25%,28.44%
CC(C)c1cccc(N2CCCC3(CCC(=O)N(C4CC4)C3)C2)n1 (stereo not given),11.25%,-17.04%
CC(C)n1c(C2CCCN(CC(=O)NC3CC3)C2)nc2ccccc21 (stereo not given),-10.47%,-13.22%
CCc1cnc(CN(C)C(=O)Nc2cnn(CC3CCCO3)c2)s1 (stereo not given),-23.91% & 3.574%,-6.42%
COCCC(=O)N1CCC2(CCN(Cc3cccc(F)c3)CC2)CC1.O=C(O)C(F)(F)F,-23.8%,6.991% & -6.76%
Cc1cccc(-c2noc([C@@H]3Cc4nc[nH]c4CN3)n2)c1,41.68% & 51.53%,29.94%
Cc1ccc(-c2cn[nH]c2C2CCCN(c3ncccn3)C2)cc1 (stereo not given),-3.088%,-0.2059%
Cc1nc2c(c(NC(C)C)n1)CCN(C(=O)c1ccno1)CC2.O=C(O)C(F)(F)F,-4.289% & -19.03%,-2.321%
CN(C)C(=O)N1Cc2nnn(C)c2C(COCC2CC2)C1 (stereo not given),0.05398%,-20.24%
CN(Cc1ccco1)C(=O)CN1CCOC(Cn2cncn2)C1 (stereo not given),-16.92%,-2.214%
CCN(Cc1ccco1)C(C)c1nc(C)no1 (stereo not given),-6.94%,-1.978%
CC(c1ccccc1)N(C)C(=O)CN1CCCc2cccc(F)c21 (stereo not given),34.06% & 26.17%,24.45%
Cc1cc(NC(=O)CNC(C)(C)c2ccccc2)on1,-1.888% & 1.274%,-14.47%
CC(=O)N1CCC(C(=O)NCCN2CCC(C)CC2)CC1,1.575% & -5.575%,-11.74%
O=C(O)C(F)(F)F.[H][C@@]12CCN(CCc3ccccc3)C[C@]1([H])[C@H](C(=O)NC1CC1)CCO2,2.145%,-6.666%
CCS(=O)(=O)N1CC[C@H](OC)[C@@H]1Cc1ccncc1,-14.55%,-9.194%
CN1CCN(CCCNCc2cc(O)c3cc(F)ccc3n2)CC1,-20.62% & -9.005%,-6.962%
CN(c1ncccc1C#N)C1CCN(Cc2ccncc2)CC1,7.69%,-2.894%
COc1ccccc1CC(=O)NS(=O)(=O)c1ccc(C(N)=O)cc1,25.01%,-1.021%
CCc1csc(NC(=O)NCc2ccccn2)n1,8.398% & 5.027%,6.698%
[H][C@@]12CN(C(=O)[C@H]3CCCO3)C[C@]1([H])C(=O)N(CC1CC1)C2,-11.89%,-20.42%
O=C(O)C(F)(F)F.O=C(O)C(F)(F)F.[H][C@@]12CN(Cc3nccs3)C[C@@]1([H])N(Cc1ccncc1)C(=O)CO2,-6.347%,3.16%
COCCCN(Cc1ccncc1)C(=O)C1COc2ccccc2C1 (stereo not given),14.34% & -1.979%,0.4503%
O=C(O)C(F)(F)F.[H][C@@]12CCN(C(C)C)CC[C@]1([H])[C@H](COCC1CC1)CN(C)C2=O,-7.633% & -7.771%,-0.9996%
Cl.FC(F)(F)c1nc(C2CCNCC2)no1,-1.537%,-4.002% & -17.98%
Cc1ccc2c(c1)c(C)cc(=O)n2CCCN,-18.68% & -5.557%,-37.22%
O=C(O)C(F)(F)F.c1ccc(CN2CCc3ncnc(-c4ccsc4)c3CC2)nc1,0.1289%,6.011%
COc1ccc(CC(C)(O)CNC(=O)Cc2ccc(F)cc2)cc1 (stereo not given),10.05%,-7.352%
O=C(O)C(F)(F)F.[H][C@]12CCC[C@@H](CNc3ncccn3)[C@@]1([H])CN(Cc1csnn1)C2,0.783% & -2.963%,6.649% & -4.014%
CCNC(=O)C1CCCN(c2cccc(C(F)(F)F)n2)C1 (stereo not given),37.08%,34.87%
O=C(O)C(F)(F)F.O=C(O)C(F)(F)F.[H][C@@]12CCN(Cc3cccc(C#N)c3)[C@@]1([H])CC(=O)N2CCN1CCCC1,-21.54%,-3.975% & 7.984%
Cc1cc(F)ccc1N1CCCC(NS(=O)(=O)CCCF)C1=O (stereo not given),-5.85% & -20.19%,-9.304%
O=C(NCCCN1CCOCC1)c1ccn(COc2ccccc2)n1,-11.58%,-4.803%
OC1(CNc2ccc(-c3nc(C4CC4)no3)cn2)CCCCC1,-3.052%,-9.936%
COc1ccc(Cl)cc1CN(C)C(=O)CN1C(=O)CCC1C (stereo not given),5.065%,4.657%
CCn1nc(C)c(NC(=O)CN2CC[C@H](CO)[C@@H](O)C2)c1C,1.023%,5.434%
N#Cc1ccc(S(=O)(=O)N2CSCC2C(=O)NCC(F)(F)F)cc1 (stereo not given),0.07909%,-12.02%
Cc1cccc(CS(=O)(=O)CC(O)Cn2cccn2)c1 (stereo not given),28.36%,-3.964%
CCNC(=O)CNC(=O)Nc1cccc(Cl)c1SC(F)F,-8.476% & 4.509%,-11.59%
Cc1ccccc1C(C#N)NC(=O)c1cccc2c1OCCO2 (stereo not given),-20.96%,-32.22%
CC(CNC(=O)N1CCNC(=O)CC1)Cc1cccs1 (stereo not given),-15.62%,5.58%
CNC(=O)NC(=O)C(NCc1ccccc1)c1ccccc1 (stereo not given),-45.52% & -2.57%,-36.6%
O=C(O)C(F)(F)F.O=C(O)C(F)(F)F.[H][C@]12CCN(Cc3cccnc3)CC[C@@]1([H])S(=O)(=O)N(CC(C)C)C2,2.535%,4.352%
OCc1cc2ccccc2nc1NC1CC=CC1,-22.34%,12.88%
COc1ccccc1C(=O)N1CCN(C(=O)CCCc2cn[nH]c2)CC1,10.34% & -2.819%,-4.26%
Cc1cccn2c(=O)cc(OC(=O)c3ccccc3Cl)nc12,6.876%,0.1509%
CCN(C(=O)CN1CCC(c2cc3ccccc3[nH]2)CC1)C1CC1,10.22% & -45.02%,-20.27%
O=C(O)C(F)(F)F.[H][C@@]12CC(=O)N(Cc3csc(C)n3)[C@@]1([H])CCN2CC1CCOCC1,-47.38%,-16.63%
O=C(O)CC(O)(CC(=O)O)C(=O)O.c1cncc(-c2nccc(CN3CCC(N4CCCCC4)CC3)n2)c1,-16.77%,-3.276%
N#Cc1ccc(CNCCc2cc(F)cc3c2OCOC3)cc1,1.407%,0.6298%
CS(=O)(=O)N1CCC2(CC1)CC(CC(=O)N1CCCC1)c1ccccc12 (stereo not given),-45.25%,-18.27%

The last 6 entries again:

Compound,Mtb glucose medium,Mtb cholesterol medium
Cc1cccn2c(=O)cc(OC(=O)c3ccccc3Cl)nc12,6.876%,0.1509%
CCN(C(=O)CN1CCC(c2cc3ccccc3[nH]2)CC1)C1CC1,10.22% & -45.02%,-20.27%
O=C(O)C(F)(F)F.[H][C@@]12CC(=O)N(Cc3csc(C)n3)[C@@]1([H])CCN2CC1CCOCC1,-47.38%,-16.63%
O=C(O)CC(O)(CC(=O)O)C(=O)O.c1cncc(-c2nccc(CN3CCC(N4CCCCC4)CC3)n2)c1,-16.77%,-3.276%
N#Cc1ccc(CNCCc2cc(F)cc3c2OCOC3)cc1,1.407%,0.6298%
CS(=O)(=O)N1CCC2(CC1)CC(CC(=O)N1CCCC1)c1ccccc12 (stereo not given),-45.25%,-18.27%

From ChEMBL document CHEMBL3988442, “University of Dundee, Small-Polar-MMV Screening Library” (2021).